In the supplement of paper PMC10849652:
Some of the results follow.

Chains of the proteins cited; added tags and fusions are not shown. Lines headed by an entry give the natural chain unless they say otherwise; changes in a name come on top.
UniProt Q8NB16: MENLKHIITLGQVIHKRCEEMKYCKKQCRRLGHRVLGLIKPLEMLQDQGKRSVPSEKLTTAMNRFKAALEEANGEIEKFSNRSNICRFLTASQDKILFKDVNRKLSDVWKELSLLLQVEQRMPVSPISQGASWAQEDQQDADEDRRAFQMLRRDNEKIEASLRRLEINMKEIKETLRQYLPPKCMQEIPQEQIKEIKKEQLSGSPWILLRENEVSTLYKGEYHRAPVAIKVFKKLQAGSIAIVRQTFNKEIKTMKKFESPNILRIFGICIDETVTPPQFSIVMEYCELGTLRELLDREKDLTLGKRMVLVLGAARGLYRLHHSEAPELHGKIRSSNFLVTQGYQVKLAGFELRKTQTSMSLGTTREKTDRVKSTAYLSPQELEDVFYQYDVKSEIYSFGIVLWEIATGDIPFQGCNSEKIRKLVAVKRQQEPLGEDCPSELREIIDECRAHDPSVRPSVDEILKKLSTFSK
UniProt P16455, whole entry, looked up: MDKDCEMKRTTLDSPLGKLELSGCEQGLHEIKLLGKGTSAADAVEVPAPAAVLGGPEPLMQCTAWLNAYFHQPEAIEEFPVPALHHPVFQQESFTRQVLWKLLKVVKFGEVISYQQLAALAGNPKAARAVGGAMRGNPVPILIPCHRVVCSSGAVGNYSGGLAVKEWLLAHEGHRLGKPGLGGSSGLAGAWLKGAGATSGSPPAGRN
UniProt O75030: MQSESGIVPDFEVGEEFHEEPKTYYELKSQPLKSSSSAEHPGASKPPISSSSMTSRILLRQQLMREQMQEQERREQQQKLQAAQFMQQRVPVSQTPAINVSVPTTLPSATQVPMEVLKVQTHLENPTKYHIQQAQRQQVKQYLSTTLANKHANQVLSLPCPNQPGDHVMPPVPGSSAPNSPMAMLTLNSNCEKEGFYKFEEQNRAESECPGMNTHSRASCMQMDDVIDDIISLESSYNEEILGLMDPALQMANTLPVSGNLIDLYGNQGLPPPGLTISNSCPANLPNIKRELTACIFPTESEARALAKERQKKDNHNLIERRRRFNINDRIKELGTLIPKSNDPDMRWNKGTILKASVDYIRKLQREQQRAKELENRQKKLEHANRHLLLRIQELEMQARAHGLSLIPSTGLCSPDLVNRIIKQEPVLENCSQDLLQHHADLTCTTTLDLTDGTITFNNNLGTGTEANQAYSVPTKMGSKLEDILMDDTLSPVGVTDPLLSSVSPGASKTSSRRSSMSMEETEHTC
UniProt Q5JXC2: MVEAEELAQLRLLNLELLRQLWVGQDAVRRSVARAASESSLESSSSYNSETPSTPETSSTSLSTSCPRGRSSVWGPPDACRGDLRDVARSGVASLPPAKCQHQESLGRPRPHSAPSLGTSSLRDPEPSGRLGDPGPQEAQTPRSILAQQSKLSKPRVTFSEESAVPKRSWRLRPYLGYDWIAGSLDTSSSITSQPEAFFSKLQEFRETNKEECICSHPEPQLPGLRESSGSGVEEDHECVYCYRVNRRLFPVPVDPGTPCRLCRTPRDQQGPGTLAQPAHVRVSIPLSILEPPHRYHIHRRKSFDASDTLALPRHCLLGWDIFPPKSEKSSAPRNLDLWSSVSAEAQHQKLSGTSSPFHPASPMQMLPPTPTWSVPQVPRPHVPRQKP
UniProt O60291: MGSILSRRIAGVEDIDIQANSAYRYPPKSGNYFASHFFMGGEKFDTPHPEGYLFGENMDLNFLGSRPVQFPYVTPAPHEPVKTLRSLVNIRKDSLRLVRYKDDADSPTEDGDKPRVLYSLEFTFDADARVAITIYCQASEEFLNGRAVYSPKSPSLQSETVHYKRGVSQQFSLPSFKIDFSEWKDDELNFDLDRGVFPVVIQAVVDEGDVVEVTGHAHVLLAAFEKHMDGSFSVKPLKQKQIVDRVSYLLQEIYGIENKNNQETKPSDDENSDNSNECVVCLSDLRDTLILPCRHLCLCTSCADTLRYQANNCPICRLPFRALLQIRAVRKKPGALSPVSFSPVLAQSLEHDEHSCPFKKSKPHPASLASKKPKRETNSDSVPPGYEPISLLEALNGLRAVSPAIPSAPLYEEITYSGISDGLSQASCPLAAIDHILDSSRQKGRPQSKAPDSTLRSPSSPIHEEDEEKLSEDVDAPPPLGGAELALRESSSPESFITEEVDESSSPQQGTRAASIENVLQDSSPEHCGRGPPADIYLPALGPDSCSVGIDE
UniProt Q8NDA8: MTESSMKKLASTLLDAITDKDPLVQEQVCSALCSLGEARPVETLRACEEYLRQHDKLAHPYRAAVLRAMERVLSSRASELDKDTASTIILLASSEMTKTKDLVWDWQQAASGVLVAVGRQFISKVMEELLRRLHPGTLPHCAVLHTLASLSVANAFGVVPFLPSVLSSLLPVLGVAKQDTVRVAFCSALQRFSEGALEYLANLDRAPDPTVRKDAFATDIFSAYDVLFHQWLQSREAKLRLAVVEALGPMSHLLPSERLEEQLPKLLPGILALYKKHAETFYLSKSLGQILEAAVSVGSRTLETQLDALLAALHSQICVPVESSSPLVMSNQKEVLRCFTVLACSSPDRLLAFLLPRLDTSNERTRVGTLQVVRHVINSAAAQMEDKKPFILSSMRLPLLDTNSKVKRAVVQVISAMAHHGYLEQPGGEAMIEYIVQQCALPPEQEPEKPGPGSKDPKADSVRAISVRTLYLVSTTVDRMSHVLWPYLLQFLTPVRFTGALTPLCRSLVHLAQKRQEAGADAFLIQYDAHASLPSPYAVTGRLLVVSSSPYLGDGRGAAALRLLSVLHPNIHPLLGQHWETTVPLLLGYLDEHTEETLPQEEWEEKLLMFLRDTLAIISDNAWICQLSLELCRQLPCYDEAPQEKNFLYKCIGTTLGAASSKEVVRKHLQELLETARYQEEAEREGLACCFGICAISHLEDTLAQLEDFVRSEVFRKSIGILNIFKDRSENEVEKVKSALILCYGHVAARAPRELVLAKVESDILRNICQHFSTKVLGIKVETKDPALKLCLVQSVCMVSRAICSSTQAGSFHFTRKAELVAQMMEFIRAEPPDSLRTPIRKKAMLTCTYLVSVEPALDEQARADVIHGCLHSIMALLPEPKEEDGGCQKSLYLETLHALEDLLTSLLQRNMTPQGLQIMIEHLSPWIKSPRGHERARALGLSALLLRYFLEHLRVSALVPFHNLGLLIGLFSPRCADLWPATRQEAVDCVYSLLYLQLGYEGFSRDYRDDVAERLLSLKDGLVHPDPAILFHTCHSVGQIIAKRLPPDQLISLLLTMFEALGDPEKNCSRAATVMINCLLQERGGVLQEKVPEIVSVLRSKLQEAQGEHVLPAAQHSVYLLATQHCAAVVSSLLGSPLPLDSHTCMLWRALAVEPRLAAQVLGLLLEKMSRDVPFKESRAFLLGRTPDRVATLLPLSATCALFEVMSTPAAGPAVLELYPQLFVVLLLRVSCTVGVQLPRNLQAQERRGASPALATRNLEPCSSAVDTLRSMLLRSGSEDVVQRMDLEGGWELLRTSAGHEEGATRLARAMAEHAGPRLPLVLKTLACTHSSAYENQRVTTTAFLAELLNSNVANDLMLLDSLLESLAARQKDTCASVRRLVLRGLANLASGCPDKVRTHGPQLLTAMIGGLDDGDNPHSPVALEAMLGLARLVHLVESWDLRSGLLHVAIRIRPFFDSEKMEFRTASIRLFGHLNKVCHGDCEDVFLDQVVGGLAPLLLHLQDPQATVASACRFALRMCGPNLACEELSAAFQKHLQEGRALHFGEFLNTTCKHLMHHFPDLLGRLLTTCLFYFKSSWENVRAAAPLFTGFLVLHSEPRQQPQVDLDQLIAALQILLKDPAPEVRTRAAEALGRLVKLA
UniProt Q7Z6M3: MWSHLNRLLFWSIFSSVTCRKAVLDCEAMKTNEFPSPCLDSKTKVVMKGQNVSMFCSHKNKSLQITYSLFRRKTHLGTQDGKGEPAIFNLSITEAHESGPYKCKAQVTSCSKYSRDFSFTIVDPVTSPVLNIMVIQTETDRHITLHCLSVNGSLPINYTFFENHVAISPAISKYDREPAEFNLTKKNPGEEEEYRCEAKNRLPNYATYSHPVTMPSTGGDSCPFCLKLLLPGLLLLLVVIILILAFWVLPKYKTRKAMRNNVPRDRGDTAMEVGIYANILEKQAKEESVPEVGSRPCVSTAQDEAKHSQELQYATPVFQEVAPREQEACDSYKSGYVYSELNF
UniProt Q6ZRQ5: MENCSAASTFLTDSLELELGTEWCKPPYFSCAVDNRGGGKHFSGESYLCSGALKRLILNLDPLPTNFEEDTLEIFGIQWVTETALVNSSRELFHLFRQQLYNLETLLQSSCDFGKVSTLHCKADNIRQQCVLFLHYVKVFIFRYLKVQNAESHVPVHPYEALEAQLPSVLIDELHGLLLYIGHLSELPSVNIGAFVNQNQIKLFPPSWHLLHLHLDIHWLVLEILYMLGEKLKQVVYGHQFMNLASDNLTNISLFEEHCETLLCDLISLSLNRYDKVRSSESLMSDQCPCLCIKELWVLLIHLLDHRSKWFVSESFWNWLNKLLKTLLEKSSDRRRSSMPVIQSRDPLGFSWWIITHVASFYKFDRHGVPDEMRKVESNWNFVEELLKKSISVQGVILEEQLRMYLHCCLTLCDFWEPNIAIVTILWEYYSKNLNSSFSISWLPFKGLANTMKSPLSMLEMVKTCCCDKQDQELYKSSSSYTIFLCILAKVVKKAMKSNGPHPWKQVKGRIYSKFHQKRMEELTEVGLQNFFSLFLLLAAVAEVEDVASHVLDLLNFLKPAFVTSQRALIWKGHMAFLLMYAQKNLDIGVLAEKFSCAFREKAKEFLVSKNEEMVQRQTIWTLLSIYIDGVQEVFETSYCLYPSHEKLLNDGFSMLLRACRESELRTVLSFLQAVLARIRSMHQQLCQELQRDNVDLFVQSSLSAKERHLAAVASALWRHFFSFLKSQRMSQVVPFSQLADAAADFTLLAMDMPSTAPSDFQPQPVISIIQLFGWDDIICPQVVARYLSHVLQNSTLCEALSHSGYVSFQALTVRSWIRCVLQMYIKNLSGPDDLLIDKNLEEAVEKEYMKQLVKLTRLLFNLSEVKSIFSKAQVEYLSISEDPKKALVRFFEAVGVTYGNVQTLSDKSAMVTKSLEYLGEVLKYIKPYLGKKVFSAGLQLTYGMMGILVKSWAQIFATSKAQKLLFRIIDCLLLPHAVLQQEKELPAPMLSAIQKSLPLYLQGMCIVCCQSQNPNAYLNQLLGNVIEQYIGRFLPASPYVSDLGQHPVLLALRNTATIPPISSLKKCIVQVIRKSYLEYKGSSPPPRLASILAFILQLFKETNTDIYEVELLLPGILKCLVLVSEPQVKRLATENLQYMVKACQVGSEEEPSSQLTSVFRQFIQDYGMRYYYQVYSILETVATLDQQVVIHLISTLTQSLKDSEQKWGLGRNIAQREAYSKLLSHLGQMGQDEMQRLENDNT
UniProt P58340: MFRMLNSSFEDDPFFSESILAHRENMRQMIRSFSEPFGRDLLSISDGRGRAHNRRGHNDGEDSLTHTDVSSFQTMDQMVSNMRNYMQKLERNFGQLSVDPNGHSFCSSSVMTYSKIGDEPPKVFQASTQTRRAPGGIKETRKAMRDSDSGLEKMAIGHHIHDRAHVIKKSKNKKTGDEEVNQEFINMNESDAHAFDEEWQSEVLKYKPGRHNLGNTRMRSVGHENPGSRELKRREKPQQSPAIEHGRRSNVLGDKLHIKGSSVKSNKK
UniProt Q8TD10: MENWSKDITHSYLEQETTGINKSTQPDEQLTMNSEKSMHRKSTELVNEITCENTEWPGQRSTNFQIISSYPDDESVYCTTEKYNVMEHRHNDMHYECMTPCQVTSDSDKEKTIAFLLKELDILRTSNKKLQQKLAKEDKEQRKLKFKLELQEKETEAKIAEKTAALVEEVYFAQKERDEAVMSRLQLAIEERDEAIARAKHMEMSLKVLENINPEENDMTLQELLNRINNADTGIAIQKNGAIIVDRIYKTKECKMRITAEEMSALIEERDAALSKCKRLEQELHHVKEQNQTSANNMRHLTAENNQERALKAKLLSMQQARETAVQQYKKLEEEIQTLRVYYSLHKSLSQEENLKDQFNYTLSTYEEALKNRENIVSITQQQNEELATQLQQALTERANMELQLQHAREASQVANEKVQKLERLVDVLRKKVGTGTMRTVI
UniProt Q9Y4U1: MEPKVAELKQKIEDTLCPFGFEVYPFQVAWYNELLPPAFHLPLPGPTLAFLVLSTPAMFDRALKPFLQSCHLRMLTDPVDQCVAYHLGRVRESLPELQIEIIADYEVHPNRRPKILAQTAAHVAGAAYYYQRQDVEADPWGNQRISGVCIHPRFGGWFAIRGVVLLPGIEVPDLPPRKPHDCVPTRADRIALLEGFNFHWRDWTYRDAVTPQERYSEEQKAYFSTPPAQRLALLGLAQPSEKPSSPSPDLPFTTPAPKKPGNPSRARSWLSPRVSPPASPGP
UniProt Q6UWV2: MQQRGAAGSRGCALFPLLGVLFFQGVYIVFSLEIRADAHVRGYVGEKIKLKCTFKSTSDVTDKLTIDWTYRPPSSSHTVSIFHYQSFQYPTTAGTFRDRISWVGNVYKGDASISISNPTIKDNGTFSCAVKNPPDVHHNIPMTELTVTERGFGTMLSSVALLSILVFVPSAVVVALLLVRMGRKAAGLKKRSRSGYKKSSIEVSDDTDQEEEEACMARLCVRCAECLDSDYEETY

Tests used:
Experiment in all cases: log2 fold change, soluble protein after heating vs DMSO (PISA); higher = thermal stabilisation; K562 lysate, 10 uM; active = over 0.2 and 3.5 SD of the protein, either way, in both replicates (recomputed)
[1] = compound: C#Cc1cccc(Nc2ncnc3cc(OCCOC)c(OCCOC)cc23)c1 [erlotinib]
In short: (§1)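 Quantification was by TMTpro 16plex LC-MS/MS with equalised channel sums, applied to the supernatant after 21,000xg for 90 min. Samples were crude K562 extract at 1 mg/mL protein in PBS pH 7.4 with 1 mM MgCl2, treated with 10 μM compound for 30 min, heated for 3 min across 48°C-58°C, pooled and brought to 0.5% NP-40 at 4°C. Values are log-two fold changes in thermal stability relative to solvent controls, from duplicates.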

[2] = compound: C1=CC(=CC=C1C2=NC3=C(N2)C=C(C=C3)C(=O)N)OC4=CC=C(C=C4)Cl
In short: as §1

[3] = compound: C1=CC2=NC=CN=C2C=C1/C=C/3\C(=O)NC(=O)S3
In short: as §1

[4] = compound: C1=CC=C(C=C1)C2=NC(=C(N2)C3=CC=NC=C3)C4=CC(=C(C=C4)Cl)O
In short: as §1

[5] = compound: C1CCN(C1)C(=O)NC2=CC=CC(=C2)NC3=NC=C(C(=N3)NCCC4=CN=CN4)Br
In short: as §1

[6] = compound: C1CN(CCC1(CC2=CC=C(C=C2)Cl)N)C3=NC=NC4=C3C=CN4
In short: as §1

[7] = compound: C1COCCN1CCN2C3=CC=CC=C3N=C2NC(=O)C4=CC(=CC=C4)[N+](=O)[O-] [IRAK-1-4 Inhibitor I]
In short: as §1

[8] = compound: C/C(=N\NC(=O)C1=CC(=CC=C1)S(=O)(=O)N2CCOCC2)/C3=C(C=CC(=C3)Cl)O
In short: as §1

[9] = compound: C1=CC2=C(C=CC(=C2)/C=C\3/C(=O)NC(=NCC4=CC=CS4)S3)N=C1
In short: as §1

[10] = compound: C1=CC=C2C(=C1)C3=NNC4=CC=CC(=C43)C2=O
In short: as §1

Measured: log2 fold change

MLKL (UniProt Q8NB16)
inactive: [1] -0.012 | [2] -0.22 | [3] -0.131 | [4] -0.039 | [5] -0.118 | [6] -0.2 | [7] 0.03

MRC2 (UniProt Q9UBG0)
inactive: [1] -0.225 | [2] 0.031 | [5] 0.011 | [6] 0.061

MOB1A (UniProt Q9H8S9)
inactive: [8] -0.116 | [9] -0.072 | [10] -0.082 | [5] -0.084 | [6] 0

MGMT (UniProt P16455)
inactive: [4] -0.229 | [7] -0.038

MITF (UniProt O75030)
inactive: [1] -0.032 | [8] 0.029 | [2] 0.019 | [9] -0.029 | [4] 0.023 | [10] 0.13 | [5] 0.083 | [6] 0.029 | [7] -0.018

MIIP (UniProt Q5JXC2)
inactive: [1] 0.197 | [2] 0 | [3] -0.103 | [4] 0.091 | [7] -0.085

MINDY2 (UniProt Q8NBR6)
inactive: [3] -0.002 | [4] 0.002 | [5] 0.103 | [6] 0.089 | [7] 0

MGRN1 isoform 2 (UniProt O60291)
inactive: [1] 0.067 | [8] -0.066 | [2] -0.1 | [9] -0.025 | [3] 0.073 | [10] -0.066 | [5] -0.003 | [6] -0.004

MOCS2 (UniProt O96033)
inactive: [4] 0.009 | [7] -0.029

MGAT1 (UniProt P26572)
inactive: [1] -0.065 | [8] 0.076 | [2] -0.031 | [9] 0.013 | [4] 0.035 | [10] -0.005 | [5] 0.013 | [6] 0.042 | [7] -0.007

MROH1 (UniProt Q8NDA8)
inactive: [3] 0.002 | [4] -0.028 | [5] -0.016 | [6] 0.043 | [7] 0.088

MPHOSPH9 (UniProt Q99550)
inactive: [1] -0.051 | [8] 0.072 | [2] 0.057 | [9] -0.445 | [3] 0.083 | [10] 0.118 | [5] -0.014 | [6] 0.026

MILR1 (UniProt Q7Z6M3)
inactive: [1] 0.115 | [8] 0.147 | [2] 0.184 | [9] -0.132 | [4] -0.03 | [10] 0.043 | [5] -0.043 | [6] 0.087 | [7] 0.036

MMS22L (UniProt Q6ZRQ5)
inactive: [1] 0.067 | [8] 0.032 | [2] 0 | [9] -0.093 | [3] 0.037 | [10] 0.064 | [5] 0.019 | [6] -0.021

MKKS (UniProt Q9NPJ1)
inactive: [8] 0.154 | [9] -0.041 | [3] 0.023 | [10] -0.077 | [5] 0.069 | [6] -0.085

MNT (UniProt Q99583)
inactive: [1] -0.181 | [8] -0.079 | [2] 0.223 | [9] 0.048 | [4] -0.007 | [10] 0.007 | [5] 0.036 | [6] 0.03 | [7] -0.003

MLF1 isoform 3 (UniProt P58340)
inactive: [8] 0.029 | [9] 0.024 | [10] -0.036

MRAS (UniProt O14807)
inactive: [1] 0.063 | [8] 0.023 | [2] 0.019 | [9] -0.006 | [3] -0.179 | [10] 0.072 | [5] 0.051 | [6] 0.014

Random excerpt: 2 records from the list, in no set order.
MOB1A (UniProt Q9H8S9)
inactive: [8] -0.116 | [9] -0.072 | [10] -0.082 | [5] -0.084 | [6] 0

MINDY2 (UniProt Q8NBR6)
inactive: [3] -0.002 | [4] 0.002 | [5] 0.103 | [6] 0.089 | [7] 0

(cont.)

MRPL22 (UniProt Q9NWU5)
active: [1] -0.424
inactive: [2] -0.074 | [4] 0.006 | [7] -0.01

MKRN3 (UniProt Q13064)
inactive: [1] -0.026 | [8] 0.113 | [2] 0.207 | [9] 0.04 | [3] -0.099 | [4] 0 | [10] -0.044 | [7] 0.027

MMGT1 (UniProt Q8N4V1)
inactive: [1] -0.013 | [2] 0.021 | [3] -0.042 | [4] -0.019 | [5] -0.031 | [6] 0.035 | [7] -0.032

MKNK2 (UniProt Q9HBH9)
inactive: [1] 0.109 | [8] 0.063 | [2] -0.131 | [9] -0.014 | [4] -0.051 | [10] -0.05 | [5] 0.147 | [6] 0.063 | [7] 0.069

MKKS (UniProt Q9HB66)
inactive: [1] 0.021 | [8] -0.095 | [2] 0.118 | [9] 0.054 | [4] -0.009 | [10] 0.008 | [5] -0.014 | [6] 0.087 | [7] -0.008

MME (UniProt P08473)
inactive: [1] 0 | [2] 0.052 | [3] -0.067 | [4] 0.011 | [7] 0.095

MICA (UniProt Q29983)
inactive: [3] 0.018

MLXIPL (UniProt Q9NP71)
inactive: [1] 0.034 | [2] 0.031 | [4] -0.256 | [7] 0.127

MIPOL1 (UniProt Q8TD10)
inactive: [1] -0.063 | [2] -0.156 | [3] 0.139 | [4] -0.001 | [5] -0.155 | [6] 0.184 | [7] 0.049

MIDEAS, A0A1C7CYX1
inactive: [1] -0.012 | [2] 0.062 | [4] 0.039 | [7] 0.086

MRPL2 (UniProt Q5T653)
inactive: [1] -0.065 | [8] 0.1 | [2] 0.005 | [9] 0.002 | [3] 0.02 | [4] 0.012 | [10] 0.004 | [7] 0.025

MINDY4 (UniProt Q4G0A6)
inactive: [3] -0.025 | [4] 0.023 | [7] -0.053

MMACHC (UniProt Q9Y4U1)
inactive: [8] -0.026 | [9] 0.038 | [3] 0.05 | [4] -0.033 | [10] 0.108 | [7] 0.05

MPZL3 (UniProt Q6UWV2)
inactive: [4] -0.017 | [7] 0.05

MLYCD (UniProt O95822)
inactive: [1] 0 | [2] -0.028 | [3] -0.028 | [4] 0.075 | [5] -0.094 | [6] 0.147 | [7] -0.016
